Experimental findings from PubChem BioAssay AID493014 (National Center for Advancing Translational Sciences (NCATS), 2011) are described below.

The term AC50 denotes the midpoint of the concentration-response curve, whichever way the signal moves.

The assay is described as follows: qHTS Assay to Find Inhibitors of Chronic Active B-Cell Receptor Signaling. Conditions: ABC-DLBCL IkBa-CBG/CBR reporter, luminescence ratio (green luciferase fused to IkBa over red control in TMD8 lymphoma cells), 4 h. In outline:
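TMD8 ABC-DLBCL cells carrying doxycycline-inducible green luciferase fused to IkappaBalpha plus unfused red luciferase were exposed to compounds (up to 46 uM) for 4 hrs at 37C. Activity came from the overlap-corrected green/red luminescence ratio.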

The mark [1] stands for this setting: measured here: CBR red luminescence, cell number.
[2] abbreviates: measured here: IkBa-CBG green luminescence.

The other results are listed elsewhere or left out. Shown are side measurements of this screen, not its main read-out; they come without a call. Compounds called inactive in the main read-out are mostly missing here. Potencies come from curve fits of mixed quality, noted in brackets.

For the compound `Cc1ccccc1C(=O)NCCCCc1ccccc1`, the AC50 under setting [1] was 10.3 µM [falling, partial curve]. As to `Cc1ccc(/C=N/n2c(-c3ccc(Cl)cc3)n[nH]c2=S)o1`, the AC50 under setting [1] was 35.5 µM [rising, single point].

On to `CCOC(=O)c1cnc2ccc(OCC)cc2c1NCCCN1CCOCC1`, for which the AC50 under setting [1] was 7.08 µM [falling, partial curve, poor fit]. For the compound `CCN(CC)c1ccc(/C=N/NC(=O)c2ccoc2C)c(O)c1`, the AC50 under setting [1] is 10 µM [falling, partial curve]. On to `CCC(C)(C)n1nnnc1CN1CCc2ccccc21`, for which the AC50 under setting [1] is 32.6 µM [rising, partial curve, poor fit].

In the case of `COc1ccc(Cl)cc1NC(=O)Nc1cc(C)on1`, the AC50 under setting [1] is 8.91 µM [falling, partial curve]. Turning to `Cc1ccc(Cn2nc(C)c(C(=O)NCC(c3cccs3)N3CCOCC3)c2Cl)cc1` (stereo not given), the AC50 under setting [1] was 18.4 µM [falling, single point]. With `CCOC(=O)CC(=O)CSc1ncnc2c1cnn2-c1ccccc1`, the AC50 under setting [1] is 15.8 µM [falling, single point]. Turning to `Cc1ccc(/C=N/NC(=O)c2cc(C3CC3)nc3ccccc23)o1`, under setting [2], the AC50 is 23.1 µM [falling, single point]. With `O=C(CC(c1ccccc1)c1ccccc1)Nc1ccc(Cl)cn1`, under setting [1], the AC50 was 29.1 µM [falling, single point]. For the compound `Cc1nc(C)c(C(=O)N2CCCC(C(=O)c3ccc4ccccc4c3)C2)s1` (stereo not given), the AC50 under setting [1] is 11.2 µM [falling, partial curve]. Consider `N#CC1=C(S)N=C(N)C(c2nc(-c3ccccc3)cs2)C12CCCCC2` (stereo not given), for which the AC50 under setting [1] was 3.66 µM [falling, single point].

Turning to `Cc1ccc(C)c(NC(=S)NNc2ccc(F)cc2F)c1`, under setting [1], the AC50 was 22.4 µM [falling, single point]. Turning to `O=C1C(=O)c2c(C(=O)c3ccccc3)coc2-c2ccccc21`, the AC50 is 29.1 µM [rising, single point] under setting [1] and 29.1 µM [falling, single point] under setting [2]. For the compound `COc1ccc(/C=N/NC(=O)c2ccc(N(C)S(=O)(=O)c3ccccc3)cc2)c(OC)c1`, under setting [1], the AC50 is 35.5 µM [falling, partial curve, poor fit]. `Clc1ccc(/C=C/c2nc3ccccc3[nH]2)cc1`: the AC50 under setting [1] is 1.41 µM [falling, full curve]. With `COC(=O)c1cccc(-c2noc(-c3ccccc3F)n2)c1`, the AC50 under setting [1] is 1.03 µM [rising, partial curve].

In the case of `CC(=O)c1ccc(OCCCC(=O)Nc2ccc(C)c(S(=O)(=O)N(C)C)c2)cc1`, the AC50 under setting [1] is 2.59 µM [rising, full curve].

For `COc1ccc(NC(=O)C(C)N2c3cccc4cccc(c34)S2(=O)=O)c(OC)c1` (stereo not given), the AC50 was 0.794 µM [rising, full curve, poor fit] under setting [1] and 7.08 µM [falling, partial curve, poor fit] under setting [2]. `COc1cccc(-c2nnc(SCC(=O)N(C(C)C)C(C)C)o2)c1`: the AC50 under setting [1] was 32.6 µM [falling, single point]. Turning to `Cc1ccc(C)c(SCc2noc(C(=O)NC(C)C)c2C(=O)O)c1`, the half-maximal activity concentration (AC50) under setting [1] is 10 µM [falling, partial curve, poor fit]. In the case of `CC(=O)Oc1ccccc1C1=NN(C(C)=O)C(c2ccccc2)C1` (stereo not given), the AC50 under setting [1] was 7.94 µM [falling, partial curve].

For `CC(=O)c1sc(NC(=O)C2(F)C(F)(F)C(F)(F)C(F)(F)C(F)(F)C2(F)F)nc1C`, under setting [1], the concentration at half-maximal activity (AC50) is 6.31 µM [falling, full curve, poor fit].

As to `COc1ccc2cc(CN(Cc3cccs3)Cc3nnnn3Cc3ccccc3)c(=O)[nH]c2c1`, the AC50 under setting [1] was 29.1 µM [falling, single point]. In the case of `CSc1ccccc1NC(=O)c1ccc(N2CCCC2=O)cc1`, under setting [1], the AC50 was 16.4 µM [falling, single point]. With `COc1ccc(/C(N)=N/OC(=O)CSc2ccc(C)cc2)cc1OC`, the AC50 under setting [1] was 13 µM [rising, partial curve, poor fit]. Consider `CC(C)(C)c1ccc(-c2conc2N)cc1`, for which, under setting [1], the AC50 is 29.1 µM [rising, single point].

Consider `S=C(NNc1ccc2ccccc2c1)NC1CCCCC1`, for which the AC50 under setting [1] was 23.1 µM [falling, partial curve, poor fit]. Take `COC(=O)c1ccc(/C=C/c2ccc3cccc(OC)c3n2)cc1`: the AC50 under setting [1] is 0.0461 µM [falling, full curve].

For the compound `O=c1cc(O)nc[nH]1`, the AC50 under setting [1] is 7.94 µM [falling, partial curve, poor fit]. For `O=C(O)c1ccc(S(=O)(=O)c2ccccc2C(=O)O)c([N+](=O)[O-])c1`, the concentration at half-maximal activity (AC50) under setting [1] was 0.891 µM [falling, full curve]. On to `COc1ccc(-c2oc3ccccc3c2C#CC(C)(C)O)cc1`, for which the half-maximal activity concentration (AC50) was 23.1 µM [falling, single point] under setting [1] and 25.9 µM [rising, partial curve, poor fit] under setting [2]. In the case of `O=S(=O)(/N=C(/c1ccccc1)N1CCOCC1)c1ccc(F)cc1F`, the AC50 under setting [1] was 2.06 µM [rising, full curve]. Regarding `Cc1ccc(OCCOCCOc2ccc(Br)cc2/C=N\NC(=O)c2ccncc2)cc1`, the half-maximal activity concentration (AC50) by setting is: under setting [1], 2.91 µM [rising, partial curve, poor fit]; under setting [2], 29.1 µM [falling, single point]. For `CCOC(=O)c1csc(NC(=O)CSc2nnc(C3CC3)n2C)n1`, the AC50 under setting [1] was 0.103 µM [falling, full curve]. As to `O=C(CCN1C(=O)C2CC=CCC2C1=O)Nc1nc(-c2ccc(F)c(F)c2)cs1` (stereo not given), under setting [1], the AC50 is 9.2 µM [rising, partial curve]. On to `CCN(CC)S(=O)(=O)c1ccc2c3c(cccc13)C(=O)S2`, for which the AC50 under setting [1] was 35.5 µM [rising, partial curve, poor fit]. With `O=C(CSC1=NCCS1)NC(c1ccccc1)c1ccccc1`, under setting [2], the AC50 is 32.6 µM [falling, partial curve, poor fit].

For `COCC(=O)Nc1cc(C(=O)NCCc2ccccc2)ccc1Cl`, under setting [1], the AC50 was 13 µM [falling, partial curve].

Regarding `c1ccc(C(c2nnnn2C2CCCCC2)N2CCc3ccccc3C2)nc1` (stereo not given), under setting [1], the AC50 is 0.891 µM [rising, full curve, poor fit]. Consider `CC(=O)c1ccc(NC(=S)N2CCCCCC2)cc1`, for which, under setting [1], the AC50 is 17.8 µM [rising, single point].

As to `C=CCOc1c(Br)cc(/C=N/Nc2ccc(C(=O)O)cc2)cc1OCC`, under setting [1], the AC50 is 0.013 µM [falling, full curve, poor fit]. With `O=C(OCC(=O)N1CCOCC1)c1ccc2[nH]c3c(c2c1)CCCC3`, the AC50 under setting [1] was 5.62 µM [rising, single point].

Regarding `CCN(CC(=O)NCc1ccccn1)S(=O)(=O)c1cc(Cl)ccc1Cl`, the AC50 under setting [1] was 29.1 µM [rising, single point]. Still for that read-out and setting: to `CC(C)c1ccc(O)c(NC(=S)NC(=O)CCc2ccccc2)c1` belongs 12.6 µM [rising, partial curve, poor fit]. Take `CCOC(=O)C1C(c2ccc(O)c(OC)c2)NC(=S)NC1(O)C(F)(F)F` (stereo not given): the AC50 under setting [1] is 25.9 µM [rising, partial curve, poor fit]. On to `CSc1ccc(CN(C)CC(=O)Nc2cccc(Br)c2)cc1`, for which the AC50 under setting [1] is 23.1 µM [falling, single point]. With `O=C1OCCC1Sc1nc2ccccc2s1` (stereo not given), under setting [1], the AC50 was 0.82 µM [falling, full curve, poor fit]. On to `CC(C)n1c(SCC(=O)Nc2ccccc2)nc2c1c(=O)n(C)c(=O)n2C`, for which, under setting [2], the AC50 was 5.17 µM [falling, partial curve, poor fit]. In the case of `Cc1nc(C)c(-c2csc(Nc3ccc(O)cc3C)n2)s1`, the AC50 reads like this: under setting [1], 0.708 µM [rising, full curve]; under setting [2], 2.51 µM [falling, full curve, poor fit]. In the case of `Oc1ccc(N=Nc2cccc(Cl)c2)cc1C=Nc1ccc(N2CCOCC2)cc1`, the AC50 under setting [1] was 20.6 µM [rising, partial curve, poor fit]. With `O=C(O)C1CCC(N2C(=O)C3CCCCC3C2=O)CC1` (stereo not given), the AC50 under setting [1] was 29.1 µM [falling, single point]. With `O=C1CC(c2ccccc2)CN1C(=O)c1cccc([N+](=O)[O-])c1` (stereo not given), the AC50 under setting [1] is 29.1 µM [rising, single point]. In the case of `CCOC(=O)Cc1csc(NC(=O)CSc2nc(N)c3c(C)c(C)sc3n2)n1`, the AC50 under setting [1] was 14.6 µM [rising, single point]. Take `CCOc1ccc(Nc2ncnc3ccc([N+](=O)[O-])cc23)cc1`: under setting [1], the AC50 was 1.26 µM [falling, full curve, poor fit]. For the compound `c1ccc(-n2ncc3c(NCc4ccc5c(c4)OCO5)ncnc32)cc1`, the AC50 is 8.2 µM [falling, partial curve] under setting [1] and 3.66 µM [rising, full curve] under setting [2]. For `O=C(NCCc1c[nH]c2ccccc12)c1cccnc1`, the AC50 under setting [1] is 7.08 µM [falling, full curve, poor fit]. In the case of `O=c1c(=NNc2ccccc2Cl)c(=O)c2ccccc12`, the AC50 under setting [1] was 6.31 µM [falling, single point]. Turning to `O=C(Nc1cccc(Cl)c1)c1ccc(F)c(S(=O)(=O)NCc2cccs2)c1`, the concentration at half-maximal activity (AC50) under setting [1] is 18.4 µM [falling, single point]. Turning to `Cc1ccccc1C(=O)Nc1ccc(N(C)C)c2ccccc12`, the half-maximal activity concentration (AC50) under setting [1] is 35.5 µM [rising, single point]. Same read-out and setting: to `COc1ccc(OC)c(NC(=O)CCCCCn2nnc3ccccc3c2=O)c1` belongs 14.1 µM [rising, partial curve]; to `O=C(CCc1nc2ccccc2[nH]c1=O)OCc1ccc(S(=O)(=O)N2CCOCC2)cc1`, 6.51 µM [falling, single point]; to `Cc1ccc(NC(=O)CN(C)S(=O)(=O)c2cccs2)cc1F`, 2.51 µM [rising, full curve, poor fit]. As for `COc1cc(OC)c(C(=O)NCCCn2ccnc2)cc1OC`, under setting [1], the half-maximal activity concentration (AC50) is 35.5 µM [rising, partial curve, poor fit].
